PMC11478834
No constants are given. Whether binding was seen depends on the method and setting. Binding seen in cells or lysates may run through a third protein. Here binding means that the protein was enriched with, or labelled near, the bait; the list need not be complete. For part of these data: No binding means not detected with the bait.

Chains of the proteins cited; added tags and fusions are not shown. Lines headed by an entry give the natural chain unless they say otherwise; changes in a name come on top.
UniProt C4M9J5: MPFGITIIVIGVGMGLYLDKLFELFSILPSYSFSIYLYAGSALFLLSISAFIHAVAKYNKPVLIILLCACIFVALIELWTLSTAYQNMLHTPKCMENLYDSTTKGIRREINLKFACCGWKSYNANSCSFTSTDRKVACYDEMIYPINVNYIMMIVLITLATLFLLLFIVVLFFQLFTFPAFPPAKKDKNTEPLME
UniProt C4M9D7: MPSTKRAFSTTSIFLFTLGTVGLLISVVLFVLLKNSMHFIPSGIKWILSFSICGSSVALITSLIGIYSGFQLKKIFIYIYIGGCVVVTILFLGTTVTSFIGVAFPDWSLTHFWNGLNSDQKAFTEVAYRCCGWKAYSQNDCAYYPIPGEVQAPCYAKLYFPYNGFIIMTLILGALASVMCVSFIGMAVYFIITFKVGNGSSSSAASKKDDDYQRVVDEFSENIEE
UniProt C4M992: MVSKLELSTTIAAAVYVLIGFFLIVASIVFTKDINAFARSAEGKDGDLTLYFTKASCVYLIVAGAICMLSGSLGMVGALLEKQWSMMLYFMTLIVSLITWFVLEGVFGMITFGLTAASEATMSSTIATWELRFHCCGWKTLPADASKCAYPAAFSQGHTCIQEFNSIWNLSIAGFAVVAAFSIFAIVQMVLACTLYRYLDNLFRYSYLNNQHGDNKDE
UniProt C4LZB0: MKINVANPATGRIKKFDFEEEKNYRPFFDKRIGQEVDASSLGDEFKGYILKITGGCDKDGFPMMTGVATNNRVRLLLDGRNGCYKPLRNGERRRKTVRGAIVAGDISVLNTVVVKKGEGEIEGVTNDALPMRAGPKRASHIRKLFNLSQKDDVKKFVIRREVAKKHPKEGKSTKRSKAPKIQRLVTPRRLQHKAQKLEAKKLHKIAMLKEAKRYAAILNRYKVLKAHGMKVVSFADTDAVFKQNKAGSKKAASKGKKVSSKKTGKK
UniProt C4LTC5: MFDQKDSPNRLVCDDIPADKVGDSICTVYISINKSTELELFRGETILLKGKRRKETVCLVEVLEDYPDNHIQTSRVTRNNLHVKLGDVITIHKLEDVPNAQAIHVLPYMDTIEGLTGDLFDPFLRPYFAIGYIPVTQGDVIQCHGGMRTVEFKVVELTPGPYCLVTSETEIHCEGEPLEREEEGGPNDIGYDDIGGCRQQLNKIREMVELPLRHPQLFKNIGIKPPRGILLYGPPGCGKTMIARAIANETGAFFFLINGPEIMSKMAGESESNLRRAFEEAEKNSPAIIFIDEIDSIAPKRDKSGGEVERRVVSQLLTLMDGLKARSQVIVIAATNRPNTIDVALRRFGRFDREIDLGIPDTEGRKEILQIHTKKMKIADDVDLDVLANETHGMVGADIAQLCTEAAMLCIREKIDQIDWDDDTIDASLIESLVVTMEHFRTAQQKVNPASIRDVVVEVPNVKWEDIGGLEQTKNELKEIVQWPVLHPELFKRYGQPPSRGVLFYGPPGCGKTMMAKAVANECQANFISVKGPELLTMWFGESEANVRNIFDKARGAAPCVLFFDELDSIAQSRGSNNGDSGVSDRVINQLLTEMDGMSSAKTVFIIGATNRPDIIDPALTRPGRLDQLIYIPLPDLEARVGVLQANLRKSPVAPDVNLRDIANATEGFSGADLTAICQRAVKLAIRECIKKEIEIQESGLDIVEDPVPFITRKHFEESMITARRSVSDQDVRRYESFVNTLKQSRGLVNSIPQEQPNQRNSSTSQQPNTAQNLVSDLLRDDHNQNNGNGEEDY
UniProt C4M730: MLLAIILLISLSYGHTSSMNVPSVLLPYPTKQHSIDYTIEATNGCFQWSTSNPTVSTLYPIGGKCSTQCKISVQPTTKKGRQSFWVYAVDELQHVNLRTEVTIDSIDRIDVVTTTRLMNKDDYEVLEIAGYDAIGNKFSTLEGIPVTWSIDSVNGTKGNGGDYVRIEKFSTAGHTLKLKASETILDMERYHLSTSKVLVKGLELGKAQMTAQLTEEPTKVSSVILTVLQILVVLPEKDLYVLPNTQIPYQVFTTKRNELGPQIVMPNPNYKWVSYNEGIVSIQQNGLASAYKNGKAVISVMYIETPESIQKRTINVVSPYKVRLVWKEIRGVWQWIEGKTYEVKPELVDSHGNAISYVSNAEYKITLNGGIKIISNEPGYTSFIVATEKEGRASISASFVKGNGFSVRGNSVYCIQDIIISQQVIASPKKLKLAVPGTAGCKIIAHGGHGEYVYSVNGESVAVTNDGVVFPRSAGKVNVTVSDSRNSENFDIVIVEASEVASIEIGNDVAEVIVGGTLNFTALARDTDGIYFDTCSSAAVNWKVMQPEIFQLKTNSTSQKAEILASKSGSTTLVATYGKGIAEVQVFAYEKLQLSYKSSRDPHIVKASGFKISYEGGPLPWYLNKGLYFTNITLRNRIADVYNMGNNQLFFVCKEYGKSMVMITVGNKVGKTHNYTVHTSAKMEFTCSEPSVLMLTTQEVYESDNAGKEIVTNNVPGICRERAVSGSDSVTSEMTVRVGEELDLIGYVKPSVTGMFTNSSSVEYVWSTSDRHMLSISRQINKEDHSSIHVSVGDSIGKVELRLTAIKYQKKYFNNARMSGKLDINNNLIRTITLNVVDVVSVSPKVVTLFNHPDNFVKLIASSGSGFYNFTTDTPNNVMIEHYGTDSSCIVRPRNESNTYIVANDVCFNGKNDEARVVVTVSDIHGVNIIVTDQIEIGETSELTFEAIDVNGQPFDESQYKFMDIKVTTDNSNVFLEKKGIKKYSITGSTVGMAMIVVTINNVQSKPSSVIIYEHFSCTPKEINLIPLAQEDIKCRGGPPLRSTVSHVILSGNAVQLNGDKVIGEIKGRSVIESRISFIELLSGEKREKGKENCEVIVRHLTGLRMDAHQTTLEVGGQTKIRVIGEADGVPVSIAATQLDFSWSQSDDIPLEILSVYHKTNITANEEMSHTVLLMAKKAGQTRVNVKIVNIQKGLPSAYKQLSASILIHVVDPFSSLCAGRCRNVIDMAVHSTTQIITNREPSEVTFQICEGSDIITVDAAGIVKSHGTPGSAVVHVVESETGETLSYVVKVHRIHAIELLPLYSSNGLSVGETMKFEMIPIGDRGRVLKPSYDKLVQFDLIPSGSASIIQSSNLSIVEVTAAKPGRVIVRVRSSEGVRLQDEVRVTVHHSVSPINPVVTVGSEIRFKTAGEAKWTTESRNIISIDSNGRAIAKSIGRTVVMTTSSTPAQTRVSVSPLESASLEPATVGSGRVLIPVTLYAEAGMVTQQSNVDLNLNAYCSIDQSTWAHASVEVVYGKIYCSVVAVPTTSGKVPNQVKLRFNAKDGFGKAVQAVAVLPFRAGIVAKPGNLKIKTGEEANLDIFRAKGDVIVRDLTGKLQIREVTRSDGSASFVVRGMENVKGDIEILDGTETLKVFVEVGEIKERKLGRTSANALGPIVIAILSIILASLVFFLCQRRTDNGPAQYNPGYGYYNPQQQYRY
UniProt A0A5K1UWE4: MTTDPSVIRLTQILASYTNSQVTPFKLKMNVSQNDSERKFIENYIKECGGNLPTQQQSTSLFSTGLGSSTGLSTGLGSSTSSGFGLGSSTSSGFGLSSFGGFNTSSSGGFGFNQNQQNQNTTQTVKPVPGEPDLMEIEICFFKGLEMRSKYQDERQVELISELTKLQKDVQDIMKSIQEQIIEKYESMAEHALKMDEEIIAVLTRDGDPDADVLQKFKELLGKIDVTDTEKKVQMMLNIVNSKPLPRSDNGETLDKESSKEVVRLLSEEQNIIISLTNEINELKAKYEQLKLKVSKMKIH
UniProt C4LS87: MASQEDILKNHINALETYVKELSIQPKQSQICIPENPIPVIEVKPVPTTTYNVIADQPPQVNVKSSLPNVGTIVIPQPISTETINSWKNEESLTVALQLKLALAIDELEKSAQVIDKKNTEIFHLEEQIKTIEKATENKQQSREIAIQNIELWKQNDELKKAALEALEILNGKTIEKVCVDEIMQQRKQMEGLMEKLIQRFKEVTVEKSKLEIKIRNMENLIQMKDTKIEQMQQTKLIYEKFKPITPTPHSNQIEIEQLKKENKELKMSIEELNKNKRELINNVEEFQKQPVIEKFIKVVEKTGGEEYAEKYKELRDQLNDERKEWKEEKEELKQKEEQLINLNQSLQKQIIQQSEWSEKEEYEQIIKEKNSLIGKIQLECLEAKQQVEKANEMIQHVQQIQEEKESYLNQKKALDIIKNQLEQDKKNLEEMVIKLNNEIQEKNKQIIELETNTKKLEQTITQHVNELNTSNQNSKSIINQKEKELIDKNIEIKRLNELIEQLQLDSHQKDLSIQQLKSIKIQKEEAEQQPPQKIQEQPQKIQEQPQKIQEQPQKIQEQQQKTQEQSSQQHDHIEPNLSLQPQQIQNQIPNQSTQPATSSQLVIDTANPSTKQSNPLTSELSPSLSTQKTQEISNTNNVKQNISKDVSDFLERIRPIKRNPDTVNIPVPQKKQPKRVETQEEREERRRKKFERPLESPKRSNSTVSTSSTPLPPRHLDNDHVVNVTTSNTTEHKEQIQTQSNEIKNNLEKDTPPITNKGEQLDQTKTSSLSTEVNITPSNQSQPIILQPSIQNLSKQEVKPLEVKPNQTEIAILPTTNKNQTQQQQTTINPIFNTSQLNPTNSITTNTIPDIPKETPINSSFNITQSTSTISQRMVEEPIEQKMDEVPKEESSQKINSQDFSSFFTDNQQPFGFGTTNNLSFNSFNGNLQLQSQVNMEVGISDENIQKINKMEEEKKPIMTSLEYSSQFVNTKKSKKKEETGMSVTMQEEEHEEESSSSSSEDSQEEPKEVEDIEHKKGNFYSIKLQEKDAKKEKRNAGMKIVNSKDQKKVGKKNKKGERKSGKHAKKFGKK
UniProt C4M8E1: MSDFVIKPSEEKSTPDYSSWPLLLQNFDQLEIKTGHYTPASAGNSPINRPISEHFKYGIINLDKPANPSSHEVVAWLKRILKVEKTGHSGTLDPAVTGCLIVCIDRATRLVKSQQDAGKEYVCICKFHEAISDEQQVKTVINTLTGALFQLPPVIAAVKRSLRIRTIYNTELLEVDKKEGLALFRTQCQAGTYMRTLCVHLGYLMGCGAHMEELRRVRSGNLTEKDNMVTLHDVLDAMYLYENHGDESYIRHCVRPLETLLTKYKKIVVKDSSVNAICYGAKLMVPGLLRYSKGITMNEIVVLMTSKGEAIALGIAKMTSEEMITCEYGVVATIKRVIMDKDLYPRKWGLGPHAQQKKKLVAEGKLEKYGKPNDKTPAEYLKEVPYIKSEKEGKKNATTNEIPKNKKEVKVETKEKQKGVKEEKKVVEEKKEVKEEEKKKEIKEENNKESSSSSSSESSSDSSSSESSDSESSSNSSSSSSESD
UniProt C4M5N2: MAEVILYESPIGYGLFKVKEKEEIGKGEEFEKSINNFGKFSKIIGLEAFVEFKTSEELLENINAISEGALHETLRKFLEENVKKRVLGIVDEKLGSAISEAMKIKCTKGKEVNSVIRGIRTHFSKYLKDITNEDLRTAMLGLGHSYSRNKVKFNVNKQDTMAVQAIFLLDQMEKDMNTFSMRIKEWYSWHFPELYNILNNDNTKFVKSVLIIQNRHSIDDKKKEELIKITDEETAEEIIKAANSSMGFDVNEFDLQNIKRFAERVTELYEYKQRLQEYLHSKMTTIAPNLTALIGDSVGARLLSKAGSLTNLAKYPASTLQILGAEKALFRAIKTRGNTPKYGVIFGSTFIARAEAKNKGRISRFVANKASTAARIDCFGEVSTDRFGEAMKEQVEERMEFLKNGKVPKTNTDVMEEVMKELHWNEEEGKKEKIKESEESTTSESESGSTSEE

What was measured:
Assay in all cases: affinity purification with mass spectrometry; trophozoites of HA-tagged transformants fixed with DSP, lysed in lysis buffer, pre-cleared on Protein G Sepharose; bait held on anti-HA agarose (4°C, 3.5 h), three washes, eluted with HA peptide 0.2 mg/ml overnight at 4°C; eluates sequenced by mass spectrometry against the HA-mock control; three independent trials (two for Ehinteraptin-HA)
[1] = molecular target: Ehinteraptin (EHI_148910) (Entamoeba histolytica) (UniProt C4LT58)
[2] = molecular target: TSPAN13 (EHI_107790) (Entamoeba histolytica) (UniProt C4M9J5)
[3] = molecular target: TSPAN12 (EHI_091490) (Entamoeba histolytica) (UniProt C4M9D7)
[4] = molecular target: TSPAN4 (EHI_075690) (Entamoeba histolytica) (UniProt C4M992)

Substance	binding [1]	binding [2]	binding [3]	binding [4]
40S ribosomal protein S6 (EHI_000590) (from UniProt C4LZB0)	binds	–	–	–
Cell division cycle protein 48 (EHI_045120) (from UniProt C4LTC5)	–	binds	–	–
Nucleoporin210 (Nup210, EHI_183510) (from UniProt C4M730)	binds	binds	binds	binds
Nucleoporin 54 (Nup54, EHI_010010) (from UniProt A0A5K1UWE4)	binds	binds	binds	no binding
SMC-domain containing protein (EHI_152940) (from UniProt C4LS87)	binds	binds	binds	binds
TSPAN4 (EHI_075690) (from UniProt C4M992)	–	–	binds	–
TSPAN12 (EHI_091490) (from UniProt C4M9D7)	–	–	–	binds
centromere binding protein cbf5 (EHI_115300) (from UniProt C4M8E1)	binds	no binding	binds	no binding
nucleolar protein 56 (Nop56, EHI_122740) (from UniProt C4M5N2)	binds	no binding	no binding	binds
